From the supplement of paper PMC9578143, “Small-Molecule Ebselen Binds to YTHDF Proteins Interfering with the Recognition of N^6-Methyladenosine-Modified RNAs” (ACS Pharmacology & Translational Science, 2022)
Some of the results follow. Plates or batches differ in their baseline, so values are only roughly comparable.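 Hits were defined as a z-score below −3.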

target: T1, YTHDF1 YTH domain (aa 365-554) (UniProt Q9BYJ9); assay: tryptophan fluorescence intensity z-score (mean); higher = higher fluorescence, less quenching (negative = binding / quenching); conditions: 10 µM
T1 sequence (whole entry): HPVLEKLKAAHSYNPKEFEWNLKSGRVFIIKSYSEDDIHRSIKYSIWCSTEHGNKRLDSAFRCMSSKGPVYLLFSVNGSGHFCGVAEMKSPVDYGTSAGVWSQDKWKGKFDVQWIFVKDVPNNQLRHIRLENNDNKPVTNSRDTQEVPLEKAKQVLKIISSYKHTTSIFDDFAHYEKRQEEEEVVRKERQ

Tryptophan fluorescence intensity z-score, inactive:
C=C(CC)C(=O)c1ccc(OCC(=O)O)c(Cl)c1Cl (plate: M 3-4) 0.116
CCCCCC1C(=O)CCC1CC(=O)OC (stereo unspecified) (plate: M 21-22) 0.516
COC(=O)[C@H](c1ccccc1Cl)N1CCc2sccc2C1 (plate: M 9-10) -0.305
C[C@]12CCC(=O)C=C1CC[C@@H]1[C@@H]2C(=O)C[C@@]2(C)[C@H]1CC[C@]2(O)C(=O)CO (plate: M 11-12) -0.604
CN(C)[C@@H]1C(O)=C(C(N)=O)C(=O)[C@@]2(O)C(O)=C3C(=O)c4c(O)cccc4[C@@](C)(O)[C@H]3C[C@@H]12 (plate: M 5-6) -0.0699
COc1ccc(-c2coc3cc(O)ccc3c2=O)cc1 (plate: M 15-16) 0.245
CCC(=O)O[C@H]1CC[C@H]2[C@@H]3CCc4cc(O)ccc4[C@H]3CC[C@]12C (plate: M 7-8) -0.814
CCOC(=O)N1CCC(=C2c3ccc(Cl)cc3CCc3cccnc32)CC1 (plate: M 9-10) -0.365
Nc1nc(F)nc2c1ncn2[C@@H]1O[C@H](COP(=O)(O)O)[C@@H](O)[C@@H]1O (plate: M 11-12) -0.731
NC(=O)c1ccccc1O (plate: M 5-6) -0.137
CC1=C(/C=C/C(C)=C/C=C/C(C)=C/C=C/C=C(C)/C=C/C=C(C)/C=C/C2=C(C)CCCC2(C)C)C(C)(C)CCC1 [beta-CAROTENE] (plate: M 1-2) 0.413
CC[C@H]1OC(=O)[C@H](C)[C@@H](O[C@H]2C[C@@](C)(OC)[C@@H](O)[C@H](C)O2)[C@H](C)[C@@H](O[C@@H]2O[C@H](C)C[C@H](N(C)C)[C@H]2O)[C@](C)(O)C[C@@H](C)C(=O)[C@H](C)[C@@H](O)[C@]1(C)O (plate: M 3-4) -0.109
CC(C)[C@@H](C)/C=C/[C@@H](C)[C@H]1CC[C@H]2C3=CC=C4C[C@@H](O)CC[C@]4(C)[C@H]3CC[C@]12C (plate: M 15-16) 0.315
O=C1c2ccccc2C(=O)C1c1ccccc1 (plate: M 3-4) 0.0414
Clc1ccc2c(c1)C(N1CCNCC1)=Nc1ccccc1O2 (plate: M 11-12) -0.154
O=C(O)CCc1nc(-c2ccccc2)c(-c2ccccc2)o1 (plate: M 9-10) 0.423
c1ccc(CC2=NCCN2)cc1 (plate: M 5-6) -0.0294
NCCCCC(=O)O (plate: M 23-24) 0.625
CC(C)(Oc1ccc(CCNC(=O)c2ccc(Cl)cc2)cc1)C(=O)O (plate: M 7-8) 0.373
OCCN1CCN(CCCN2c3ccccc3Sc3ccc(C(F)(F)F)cc32)CC1 (plate: M 7-8) -0.224
CC(=O)OCC(=O)[C@H]1CC[C@H]2[C@@H]3CC=C4C[C@@H](O)CC[C@]4(C)[C@H]3CC[C@]12C (plate: M 19-20) -0.252
CC1=CC(=O)[C@H]2C(C)(C)CCC[C@]2(C)[C@@]1(O)CCc1ccoc1 (plate: M 15-16) 0.283
O=C(O)c1ccccc1-c1c2cc(I)c(=O)c(I)c-2oc2c(I)c(O)c(I)cc12 (plate: M 13-14) -1.2
CCc1ccc(CCOc2ccc(CC3SC(=O)NC3=O)cc2)nc1 (stereo unspecified) (plate: M 9-10) -0.296
Cc1ccc(N(CC2=NCCN2)c2cccc(O)c2)cc1 (plate: M 5-6) -0.543
C[C@@H]1CC[C@H]2C(C)(C)[C@H]3C[C@@]12CC[C@@]3(C)O (plate: M 17-18) 0.44
Cc1c(Cl)cccc1Nc1ccccc1C(=O)O (plate: M 21-22) -0.274
CCCSc1ccc2[nH]c(NC(=O)OC)nc2c1 (plate: M 9-10) -0.124
COc1cc(C)c(C(=O)O)c(O)c1 (plate: M 15-16) 0.88
CO[C@H]1/C=C/O[C@@]2(C)Oc3c(C)c(O)c4c(O)c(c(/C=N/N5CCN(C)CC5)c(O)c4c3C2=O)NC(=O)/C(C)=C\C=C\[C@H](C)[C@H](O)[C@@H](C)[C@@H](O)[C@@H](C)[C@H](OC(C)=O)[C@@H]1C (plate: M 5-6) -0.665
N[C@@H](CSCSC[C@H](N)C(=O)O)C(=O)O (plate: M 17-18) 0.392
CN/C(=N\CCSCc1nc[nH]c1C)NC#N (plate: M 5-6) 0.0214
C/C(=C\C(=O)OCCCCCCCCC(=O)O)C[C@@H]1OC[C@H](C[C@@H]2O[C@H]2[C@@H](C)[C@H](C)O)[C@@H](O)[C@H]1O (plate: M 11-12) -0.881
O=C(O)c1cc(/N=N/c2ccc(S(=O)(=O)Nc3ccccn3)cc2)ccc1O (plate: M 5-6) -0.396
CC(=O)O[C@@H]1C=C[C@]2(C)C(C[C@@H](OC(C)=O)[C@]3(C)C4=CC(=O)O[C@H](c5ccoc5)[C@@]4(C)CCC23)C1(C)C (stereo partly specified) (plate: M 13-14) 0.17
CCOc1ccc2nc(S(N)(=O)=O)sc2c1 (plate: M 11-12) 0.266
c1coc(CNc2ncnc3[nH]cnc23)c1 (plate: M 17-18) 0.154
CC(=O)Oc1cc(-c2coc3cc(OC(C)=O)c(OC(C)=O)c(OC(C)=O)c3c2=O)cc(OC(C)=O)c1OC(C)=O (plate: M 15-16) -0.837
Cc1cc2c(s1)Nc1ccccc1N=C2N1CCN(C)CC1 (plate: M 9-10) -0.185
CC1(C)C(O[C@@H]2OC[C@@H](O)[C@H](O)[C@H]2O)CC[C@]23CC24CC[C@]2(C)[C@@H]([C@@]5(C)CC[C@@H](C(C)(C)O)O5)[C@H](O)C[C@@]2(C)C4C[C@@H](O[C@@H]2O[C@H](CO)[C@@H](O)[C@H](O)[C@H]2O)C13 (stereo partly specified) (plate: M 19-20) 0.358
CC=CC1=C(C(=O)O)N2C(=O)[C@@H](NC(=O)[C@H](N)c3ccc(O)cc3)[C@H]2SC1 (plate: M 11-12) -0.617
COC(=O)c1c(C)cc(OC)cc1O (plate: M 15-16) 0.465
NC(=O)CC[C@H](N)C(=O)O (plate: M 1-2) 0.424
NC(=O)CC[C@H](N)C(=O)O (plate: M 17-18) 0.424
O=C1c2ccccc2C(=O)C1c1ccc(Br)cc1 (plate: M 11-12) 0.46
CC(C)OC(=O)C(C)(C)Oc1ccc(C(=O)c2ccc(Cl)cc2)cc1 (plate: M 7-8) -0.0437
CN1CCCN=C1/C=C/c1cccc(O)c1 (plate: M 11-12) 0.132
CC(N)CCCC(C)(C)O (stereo unspecified) (plate: M 23-24) 0.346
C=C1CCC(C2CC(=O)OC2=O)C(=O)CCC2C1CC2(C)C (stereo unspecified) (plate: M 17-18) 0.223
Oc1cccc(O)c1 (plate: M 5-6) -0.479
CC(=O)N(c1onc(C)c1C)S(=O)(=O)c1ccc(N)cc1 (plate: M 11-12) -0.932
Cc1cc(O)cc(C)c1Cl (plate: M 1-2) 0.17
COc1ccc2c(c1)CC[C@@H]1[C@@H]2CC[C@]2(C)[C@@H](O)CC[C@@H]12 (plate: M 21-22) 0.0582
COc1cccc2c1C(=O)c1c(O)c3c(c(O)c1C2=O)C[C@@](O)(C(=O)CO)C[C@@H]3O[C@H]1C[C@H](N)[C@@H](O)[C@H](C)O1 (plate: M 11-12) -0.554
C/C=C/c1ccc(OC)cc1 (plate: M 9-10) -0.363
C=C(C)[C@@H]1CC[C@]2(CO)CC[C@]3(C)[C@H](CC[C@@H]4[C@@]5(C)CC[C@H](O)C(C)(C)[C@@H]5CC[C@]43C)[C@@H]12 (plate: M 17-18) 0.527
O[C@H]1[C@H](O)[C@@H](O)[C@H](O)[C@@H](O)[C@H]1O (plate: M 3-4) -0.1
CC(=O)O[C@H]1C(=O)[C@@]2(C)[C@H]([C@H](OC(=O)c3ccccc3)[C@]3(O)C[C@H](OC(=O)[C@H](O)[C@@H](NC(=O)c4ccccc4)c4ccccc4)C(C)=C1C3(C)C)[C@]1(OC(C)=O)CO[C@@H]1C[C@@H]2O (plate: M 9-10) -0.612
NC(=O)c1cnccn1 (plate: M 5-6) -0.0403
CC(=O)c1ccc[nH]1 (plate: M 21-22) -0.283
O=C(CCNNC(=O)c1ccncc1)NCc1ccccc1 (plate: M 11-12) -0.017
Cc1nc2ccccn2c(=O)c1CCN1CCC(C(=O)c2ccc(F)cc2)CC1 (plate: M 9-10) -0.397
O=c1n(CCCN2CCN(c3cccc(Cl)c3)CC2)nc2ccccn12 (plate: M 7-8) 0.0704
CC1/C(=N/O)C[C@@H]2C[C@H]1C2(C)C (stereo partly specified) (plate: M 21-22) 0.393
CC1(C)S[C@@H]2[C@H](NC(=O)[C@H](N)c3ccccc3)C(=O)N2[C@H]1C(=O)O (plate: M 1-2) 0.368
O=C(/C=C/c1ccccc1)c1ccc(O[C@@H]2O[C@H](CO)[C@@H](O)[C@H](O)[C@H]2O)cc1O (plate: M 15-16) 0.0238

2 successive entries out of the list so far, quoted:
Tryptophan fluorescence intensity z-score, inactive:
Cc1c(Cl)cccc1Nc1ccccc1C(=O)O (plate: M 21-22) -0.274
CCCSc1ccc2[nH]c(NC(=O)OC)nc2c1 (plate: M 9-10) -0.124

Looked up one by one from above:
Tryptophan fluorescence intensity z-score, inactive:
O=C1c2ccccc2C(=O)C1c1ccc(Br)cc1 (plate: M 11-12) 0.46
CCOC(=O)N1CCC(=C2c3ccc(Cl)cc3CCc3cccnc32)CC1 (plate: M 9-10) -0.365
